This test in a line: qHTS Assay to Find Inhibitors of Chronic Active B-Cell Receptor Signaling. The following applies: ABC-DLBCL IkBa-CBG/CBR reporter, luminescence ratio (green luciferase fused to IkBa over red control in TMD8 lymphoma cells), 4 h. A digest of the protocol: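 Cell line TMD8 (human ABC DLBCL), stably expressing tet-inducible CBG68-IkBa fusion and CBR; IMDM/0.5% FBS; cpd up to 46 uM; dox induction, 4 h, 37C/5% CO2; dual luminescence; green/red ratio; MG132 control.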
(In general: Quantitative high-throughput screening tests each substance at several concentrations.)

Where [1] appears, read: measured here: CBR red luminescence, cell number.
Setting [2] is: measured here: IkBa-CBG green luminescence.

Some of the results follow. The main result of the screen is listed elsewhere. These columns were measured beside it and carry no call. The list favours compounds with an active or inconclusive main result. Words in brackets tell the shape of the fitted curve; partial curves, single points and poor fits give uncertain potencies.

The term AC50 denotes the concentration at which the activity in the assay is half-maximal. For the molecule `Cc1nn(-c2ccc(F)cc2)c2c1cc(C#N)c1nc3ccccc3n12`, under setting [1], the AC50 is 0.82 µM [rising, full curve, poor fit].

For `O=C(Nc1ccc(OC(F)(F)F)cc1)c1ccccc1-n1cnnn1`, the AC50 under setting [1] was 18.4 µM [rising, single point].

As for `O=C(Nc1ccc(-n2cccc2)cc1)C1CC1`, the AC50 is 0.112 µM [rising, full curve, poor fit] under setting [1] and 15.8 µM [falling, partial curve, poor fit] under setting [2].

In the case of `O=C(Nc1nc2ccccc2[nH]1)c1ccccc1F`, under setting [1], the AC50 is 2.24 µM [falling, full curve].

For `COc1cc(/C=C/c2nc3cc(Cl)ccc3c(=O)n2-c2ccc(C)cc2C)cc(OC)c1OC`, the AC50 under setting [1] was 5.62 µM [falling, single point].

Turning to `CC1CCCN(C(=O)c2ccc(-c3ccccc3Cl)o2)C1` (configuration not stated), the AC50 under setting [1] is 0.651 µM [rising, partial curve].

Take `Cc1csc(NC(=O)c2ccc(S(=O)(=O)N(C)c3ccccc3)cc2)n1`: the AC50 under setting [1] was 14.1 µM [falling, partial curve, poor fit].

For `Cc1cc(Nc2c(C)n(C)n(-c3ccccc3)c2=O)n2c(nc3ccccc32)c1C#N`, the AC50 under setting [1] was 16.4 µM [rising, partial curve, poor fit].

In the case of `CCCCOC(=O)Nc1cc(C(=O)OC)ccc1C(=O)OC`, the AC50 under setting [1] is 29.1 µM [rising, single point].

As for `NC(=O)c1ccc(NC(=O)c2ccccc2S(=O)(=O)c2ccccc2[N+](=O)[O-])cc1`, the AC50 under setting [1] is 18.4 µM [rising, partial curve, poor fit].

For the molecule `O=C(NCC1CCCO1)c1sc2ccccc2c1Cl` (configuration not stated), under setting [1], the AC50 is 0.461 µM [rising, full curve, poor fit].

With `O=C(CCN1C(=O)/C(=C/c2ccc(Cl)cc2)SC1=S)NCCCn1ccnc1`, under setting [1], the AC50 is 12.6 µM [falling, single point].

As to `O=C(c1ccccc1)c1ccc(Cn2cc(CCCO)nn2)cc1`, under setting [1], the AC50 was 8.91 µM [falling, partial curve].

On to `[O-][n+]1onc2c1CCc1[nH]c(-c3ccccc3)nc1-2`, for which the half-maximal activity concentration (AC50) under setting [1] is 5.62 µM [falling, partial curve, poor fit].

As for `CC(=O)Oc1ccc2ccccc2c1C(NC(=O)Cc1ccccc1)c1ccccc1` (configuration not stated), the AC50 under setting [1] is 29.1 µM [falling, single point].

As for `CC(C)CC(=O)Nc1ccc(S(=O)(=O)Nc2nccs2)cc1`, the AC50 under setting [1] is 0.794 µM [rising, full curve, poor fit].

Consider `Cc1cc(C)n(-c2nc(-c3ccccc3)cs2)n1`, for which the AC50 under setting [1] was 29.1 µM [rising, single point].

On to `N#CCC(=O)NCCCOC(=O)Nc1ccc(Cl)c(Cl)c1`, for which, under setting [1], the AC50 is 3.98 µM [rising, single point].

As to `O=C(COC(=O)CSc1ccccc1)NCCNC(=O)COC(=O)CSc1ccccc1`, the AC50 under setting [1] is 1.03 µM [rising, partial curve, poor fit].

As to `O=C(Nc1ccccc1F)c1ccccc1-c1ccccc1`, the AC50 under setting [1] was 0.82 µM [rising, full curve, poor fit].

With `Cc1ccc(N=Nc2cc(C)ccc2O)c(C)c1`, under setting [1], the AC50 was 35.5 µM [rising, single point].

In the case of `O=[N+]([O-])c1cc(/C=N\O)ccc1Oc1ccc(F)cc1`, the AC50 under setting [2] is 11.2 µM [falling, partial curve, poor fit].

Turning to `COCCCN1C(=O)C(=O)/C(=C(/O)c2ccc(C)cc2)C1/C=C/c1ccccc1` (configuration not stated), the AC50 under setting [1] is 0.0891 µM [rising, full curve, poor fit].

For `COC(=O)Nc1nn(Cc2ccccc2F)cc1Br`, the AC50 under setting [1] is 18.4 µM [rising, single point].

On to `CC(=O)Nc1sc(N/N=C\c2ccccc2)nc1-c1cccs1`, for which the AC50 under setting [1] is 9.2 µM [falling, partial curve].

Take `CCOC(=O)Nc1cccc(C(=O)O)c1`: the AC50 under setting [1] was 6.51 µM [falling, partial curve].

In the case of `O=C(Nc1ccc(F)c(F)c1)C1CCN(S(=O)(=O)c2cccc3nonc23)CC1`, the AC50 under setting [1] is 31.6 µM [falling, single point].

Turning to `CC1(c2ccc3noc(-c4ccc(F)cc4)c3c2)OCCO1`, the AC50 under setting [1] is 1.64 µM [rising, partial curve].

On to `CC(=O)Nc1ccc(N(CC(=O)NCC2CCCO2)C(=O)CCC(=O)Nc2cc(C)on2)cc1` (configuration not stated), for which the AC50 under setting [1] is 11.2 µM [rising, partial curve, poor fit].

`CC1(C)Cc2ccccc2C(N/N=C/c2ccc([N+](=O)[O-])cc2)=N1`: the AC50 under setting [1] was 11.2 µM [rising, partial curve, poor fit].

Consider `CC(C)c1ccc(Nc2ncccc2C#N)cc1`, for which the AC50 under setting [1] is 5.62 µM [rising, partial curve].

In the case of `N#Cc1ccccc1S(=O)c1ccccc1C(=O)Nc1ccccc1` (configuration not stated), the AC50 under setting [1] was 7.08 µM [rising, partial curve, poor fit].

`COC(=O)c1cc(NC(=O)CSc2nnc(N)s2)ccc1Cl`: the AC50 under setting [1] is 2.82 µM [falling, partial curve, poor fit].

As for `COc1ccc2c(CC(=O)Nc3c(C)n(C)n(-c4ccccc4)c3=O)coc2c1`, under setting [1], the AC50 is 23.1 µM [falling, partial curve, poor fit].

With `O=C1C2C3c4ccccc4C(c4ccccc43)C2C(=O)N1c1cccnc1` (configuration not stated), under setting [1], the AC50 was 16.4 µM [falling, single point].

In the case of `O=C(N/N=C/c1c[nH]c2ccccc12)c1ccn[nH]1`, the AC50 under setting [1] was 7.94 µM [falling, partial curve].

On to `COc1ccc(C(=O)OCC(=O)N(C)C2CCS(=O)(=O)C2)cc1S(=O)(=O)N(C)Cc1ccccc1` (configuration not stated), for which the AC50 under setting [1] was 7.31 µM [falling, partial curve].

Turning to `O=C(Cn1cc(S(=O)(=O)N2CCN(c3ccccc3F)CC2)c2ccccc2c1=O)NCCCN1CCCCCC1`, the AC50 under setting [1] is 3.98 µM [falling, partial curve, poor fit].

Consider `COc1cc2nc(N(C)C)nc(N)c2cc1OC`, for which, under setting [1], the AC50 is 10 µM [falling, partial curve].

With `O=C(Nc1ccc(O)c(C(=O)O)c1)c1ccc2c(c1)C(=O)N(CC1CCCO1)C2=O` (configuration not stated), the AC50 under setting [1] was 11.2 µM [falling, partial curve, poor fit].

Take `O=C(O)c1cccnc1SCc1cccc(Cl)c1`: the AC50 under setting [1] was 10 µM [rising, partial curve, poor fit].

The values above are taken from PubChem BioAssay AID493014 (National Center for Advancing Translational Sciences (NCATS), 2011).
